{"sequences": {"note": "Sequences of proteins named here, by UniProt entry; tags and fusion partners are left off.", "UniProt P18888": "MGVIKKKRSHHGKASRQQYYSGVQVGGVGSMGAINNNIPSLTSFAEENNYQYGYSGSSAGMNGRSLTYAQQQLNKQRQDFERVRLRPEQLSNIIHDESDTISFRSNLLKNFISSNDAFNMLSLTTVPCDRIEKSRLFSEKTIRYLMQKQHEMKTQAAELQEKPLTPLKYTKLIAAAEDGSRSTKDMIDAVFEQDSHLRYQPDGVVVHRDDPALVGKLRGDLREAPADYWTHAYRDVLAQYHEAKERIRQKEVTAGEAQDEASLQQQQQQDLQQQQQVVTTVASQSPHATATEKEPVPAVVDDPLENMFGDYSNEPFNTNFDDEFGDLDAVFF"}, "source": "paper PMC11377671", "molecules": {"B1": {"name": "HA-tagged Swi1 length variant aa 329–657, synthesized in S. cerevisiae (domain or fragment, UniProt P09547 329-657)", "chain": "RAAMFAALQQKQQQRFQALQQQQQQQQNQQQQNQQPQQQQQQQQNPKFLQSQRQQQQRSILQSLNPALQEKISTELNNKQYELFMKSLIENCKKRNMPLQSIPEIGNRKINLFYLYMLVQKFGGADQVTRTQQWSMVAQRLQISDYQQLESIYFRILLPYERHMISQEGIKETQAKRIFLQQFLQELLKKVQQQQQAAALANANNNINSASSAPTPAAPGASVPATAAPGTEAGIVPVSANTPKSLNSNININVNNNNIGQQQVKKPRKQRVKKKTKKELELERKEREDFQKRQQKLLEDQQRQQKLLLETKLRQQYEIELKKLPKVYK"}, "B2": {"name": "HA-Swi1 variant aa 428–606 (domain or fragment, UniProt P09547 428-606)", "chain": "QSIPEIGNRKINLFYLYMLVQKFGGADQVTRTQQWSMVAQRLQISDYQQLESIYFRILLPYERHMISQEGIKETQAKRIFLQQFLQELLKKVQQQQQAAALANANNNINSASSAPTPAAPGASVPATAAPGTEAGIVPVSANTPKSLNSNININVNNNNIGQQQVKKPRKQRVKKKTKK"}}, "key": {"[1]": {"molecular_target": "T1, GST-Pho4 TAD (aa 1–104) (S. cerevisiae) (UniProt P07270)", "T1 sequence": "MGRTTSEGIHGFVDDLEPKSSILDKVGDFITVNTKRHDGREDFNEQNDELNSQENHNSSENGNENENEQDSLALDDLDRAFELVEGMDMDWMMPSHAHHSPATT", "experiment": "pull-down; GST-TAD fusion from E. coli immobilized on GSH sepharose, incubated with total protein extract of E. coli transformants containing the HA fusion; buffer SA-125 (20 mM HEPES pH 7.6, 1 mM DTT, 1 mM EDTA, 125 mM K-acetate, 20% glycerol, 1% NP-40); elution with free GSH, anti-HA blot; only the target purified"}, "[2]": {"molecular_target": "T2, GST-Ino2 TAD2 (aa 101–135) (S. cerevisiae) (UniProt P26798)", "T2 sequence": "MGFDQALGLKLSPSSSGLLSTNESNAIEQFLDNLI", "experiment": "pull-down; GST-TAD fusion from E. coli immobilized on GSH sepharose, incubated with total protein extract of E. coli transformants containing the HA fusion; buffer SA-125 (20 mM HEPES pH 7.6, 1 mM DTT, 1 mM EDTA, 125 mM K-acetate, 20% glycerol, 1% NP-40); elution with free GSH, anti-HA blot; only the target purified"}, "[3]": {"molecular_target": "T3, GST-Ino2 TAD1 (aa 1–35) (S. cerevisiae) (UniProt P26798)", "T3 sequence": "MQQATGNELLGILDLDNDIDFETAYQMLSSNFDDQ", "experiment": "pull-down; GST-TAD fusion from E. coli immobilized on GSH sepharose, incubated with total protein extract of E. coli transformants containing the HA fusion; buffer SA-125 (20 mM HEPES pH 7.6, 1 mM DTT, 1 mM EDTA, 125 mM K-acetate, 20% glycerol, 1% NP-40); elution with free GSH, anti-HA blot; only the target purified"}, "[4]": {"molecular_target": "T1, GST-Pho4 TAD (aa 1–104) (S. cerevisiae)", "experiment": "pull-down; GST-TAD fusion from E. coli immobilized on GSH sepharose, incubated with total protein extract of yeast transformants containing the HA fusion; buffer SA-125 (20 mM HEPES pH 7.6, 1 mM DTT, 1 mM EDTA, 125 mM K-acetate, 20% glycerol, 1% NP-40); elution with free GSH, anti-HA blot; only the target purified"}, "[5]": {"molecular_target": "T2, GST-Ino2 TAD2 (aa 101–135) (S. cerevisiae)", "experiment": "pull-down; GST-TAD fusion from E. coli immobilized on GSH sepharose, incubated with total protein extract of yeast transformants containing the HA fusion; buffer SA-125 (20 mM HEPES pH 7.6, 1 mM DTT, 1 mM EDTA, 125 mM K-acetate, 20% glycerol, 1% NP-40); elution with free GSH, anti-HA blot; only the target purified"}, "[6]": {"molecular_target": "T3, GST-Ino2 TAD1 (aa 1–35) (S. cerevisiae)", "experiment": "pull-down; GST-TAD fusion from E. coli immobilized on GSH sepharose, incubated with total protein extract of yeast transformants containing the HA fusion; buffer SA-125 (20 mM HEPES pH 7.6, 1 mM DTT, 1 mM EDTA, 125 mM K-acetate, 20% glycerol, 1% NP-40); elution with free GSH, anti-HA blot; only the target purified"}, "[7]": {"molecular_target": "T2, GST-Ino2 TAD2 (aa 101–135) (S. cerevisiae)", "experiment": "pull-down; GST-TAD fusion from E. coli immobilized on GSH sepharose, incubated with total protein extract of yeast transformants containing the HA fusion; buffer SA-125 (20 mM HEPES pH 7.6, 1 mM DTT, 1 mM EDTA, 125 mM K-acetate, 20% glycerol, 1% NP-40); elution with free GSH, anti-HA blot; only the target purified", "remark": "listed apart in the source"}, "[8]": {"molecular_target": "T3, GST-Ino2 TAD1 (aa 1–35) (S. cerevisiae)", "experiment": "pull-down; GST-TAD fusion from E. coli immobilized on GSH sepharose, incubated with total protein extract of yeast transformants containing the HA fusion; buffer SA-125 (20 mM HEPES pH 7.6, 1 mM DTT, 1 mM EDTA, 125 mM K-acetate, 20% glycerol, 1% NP-40); elution with free GSH, anti-HA blot; only the target purified", "remark": "listed apart in the source"}, "[9]": {"molecular_target": "T3, GST-Ino2 TAD1 (aa 1–35) (S. cerevisiae)", "experiment": "pull-down; GST-Ino2 TAD1 immobilized on GSH sepharose, incubated with protein extract containing the HA-tagged length variant made in E. coli or in S. cerevisiae (host of each variant marked only in Fig. 3B, 4B); buffer SA-125; anti-HA blot; only the target purified"}, "[10]": {"molecular_target": "T2, GST-Ino2 TAD2 (aa 101–135) (S. cerevisiae)", "experiment": "pull-down; mapping of Swi1 length variants with Ino2 TAD2; not shown; only the target purified"}}, "note": "These are yes or no findings as the source states them, for the method shown. Binding seen in cells or lysates may run through a third protein. Some binding calls cover weakened binding; strength is not graded here. Sequences can lack the tags named with a protein.", "data": [{"molecule": "Full-length HA-Snf6, synthesized in E. coli (from UniProt P18888 1-332)", "values": [{"measurement": "binding", "setting": "[1]", "result": "binds"}, {"measurement": "binding", "setting": "[2]", "result": "binds"}, {"measurement": "binding", "setting": "[3]", "result": "binds"}]}, {"molecule": "Full-length HA-Snf6, synthesized in S. cerevisiae (from UniProt P18888 1-332)", "values": [{"measurement": "binding", "setting": "[4]", "result": "binds"}, {"measurement": "binding", "setting": "[5]", "result": "binds"}, {"measurement": "binding", "setting": "[6]", "result": "binds"}]}, {"molecule": "B1", "values": [{"measurement": "binding", "setting": "[7]", "result": "binds"}, {"measurement": "binding", "setting": "[8]", "result": "binds"}]}, {"molecule": "B2", "values": [{"measurement": "binding", "setting": "[9]", "result": "binds"}, {"measurement": "binding", "setting": "[10]", "result": "binds"}]}]}
